From the supplement of paper PMC7666118
This is one part of the list.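 Rule for the calls: active = dose-dependent thermal stabilisation significant by F-test of dose-response against flat model at 10% FDR; inactive = not significant.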

The chains behind the UniProt entries cited, without tags or fusion partners. Where a name states a change or a piece, a line headed by the entry shows the natural chain unless it says otherwise.
UniProt Q53QZ3: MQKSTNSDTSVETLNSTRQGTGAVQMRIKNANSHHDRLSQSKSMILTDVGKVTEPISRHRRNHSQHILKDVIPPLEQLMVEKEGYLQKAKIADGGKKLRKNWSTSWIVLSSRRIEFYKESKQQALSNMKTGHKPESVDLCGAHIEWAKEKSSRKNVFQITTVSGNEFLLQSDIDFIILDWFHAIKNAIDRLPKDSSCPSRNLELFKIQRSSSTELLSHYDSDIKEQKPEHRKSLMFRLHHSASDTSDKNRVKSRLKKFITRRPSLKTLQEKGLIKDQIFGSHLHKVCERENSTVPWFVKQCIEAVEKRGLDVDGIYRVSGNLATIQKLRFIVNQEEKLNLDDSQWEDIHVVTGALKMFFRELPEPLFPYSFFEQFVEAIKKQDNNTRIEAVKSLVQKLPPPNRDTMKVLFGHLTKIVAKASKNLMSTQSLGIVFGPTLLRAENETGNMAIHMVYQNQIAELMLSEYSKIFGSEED
UniProt Q8N8A2: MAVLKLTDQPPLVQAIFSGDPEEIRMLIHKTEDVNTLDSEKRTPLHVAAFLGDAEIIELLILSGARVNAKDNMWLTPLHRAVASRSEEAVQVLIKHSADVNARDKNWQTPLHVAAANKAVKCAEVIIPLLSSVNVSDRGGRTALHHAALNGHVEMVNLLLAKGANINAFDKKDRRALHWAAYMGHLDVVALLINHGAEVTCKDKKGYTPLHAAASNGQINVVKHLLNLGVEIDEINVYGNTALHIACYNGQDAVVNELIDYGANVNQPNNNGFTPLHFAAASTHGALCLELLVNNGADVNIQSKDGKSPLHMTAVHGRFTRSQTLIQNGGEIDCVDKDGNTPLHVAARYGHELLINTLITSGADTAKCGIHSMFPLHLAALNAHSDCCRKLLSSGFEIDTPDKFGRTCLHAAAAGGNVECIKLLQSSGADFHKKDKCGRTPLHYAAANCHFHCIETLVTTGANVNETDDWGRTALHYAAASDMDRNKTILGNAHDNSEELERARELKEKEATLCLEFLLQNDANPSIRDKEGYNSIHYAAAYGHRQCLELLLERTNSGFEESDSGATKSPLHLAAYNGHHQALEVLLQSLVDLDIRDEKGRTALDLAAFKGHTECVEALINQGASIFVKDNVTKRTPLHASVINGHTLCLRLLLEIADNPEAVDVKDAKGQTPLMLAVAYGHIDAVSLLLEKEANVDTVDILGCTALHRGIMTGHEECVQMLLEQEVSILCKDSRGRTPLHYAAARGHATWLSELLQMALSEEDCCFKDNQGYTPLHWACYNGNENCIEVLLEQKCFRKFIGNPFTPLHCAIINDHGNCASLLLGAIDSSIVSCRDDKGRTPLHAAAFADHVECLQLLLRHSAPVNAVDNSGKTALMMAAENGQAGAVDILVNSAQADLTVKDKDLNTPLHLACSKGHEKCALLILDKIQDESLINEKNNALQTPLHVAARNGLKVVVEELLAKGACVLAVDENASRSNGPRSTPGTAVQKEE
UniProt Q9NWB6: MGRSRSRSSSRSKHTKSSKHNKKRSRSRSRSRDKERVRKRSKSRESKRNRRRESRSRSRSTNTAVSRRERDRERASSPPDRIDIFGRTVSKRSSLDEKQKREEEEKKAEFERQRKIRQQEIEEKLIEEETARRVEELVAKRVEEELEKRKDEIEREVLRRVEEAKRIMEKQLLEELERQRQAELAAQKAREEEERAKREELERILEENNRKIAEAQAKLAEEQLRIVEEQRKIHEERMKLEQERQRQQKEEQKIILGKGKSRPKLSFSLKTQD
UniProt P12429: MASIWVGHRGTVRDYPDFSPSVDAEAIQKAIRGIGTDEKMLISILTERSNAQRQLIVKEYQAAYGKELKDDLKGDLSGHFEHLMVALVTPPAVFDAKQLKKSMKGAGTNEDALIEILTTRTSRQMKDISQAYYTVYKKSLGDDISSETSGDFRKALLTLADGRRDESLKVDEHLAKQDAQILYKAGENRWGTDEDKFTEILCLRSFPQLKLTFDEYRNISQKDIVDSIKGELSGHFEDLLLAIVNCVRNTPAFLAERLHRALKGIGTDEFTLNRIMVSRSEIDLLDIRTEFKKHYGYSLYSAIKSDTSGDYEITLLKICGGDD
UniProt Q4G176: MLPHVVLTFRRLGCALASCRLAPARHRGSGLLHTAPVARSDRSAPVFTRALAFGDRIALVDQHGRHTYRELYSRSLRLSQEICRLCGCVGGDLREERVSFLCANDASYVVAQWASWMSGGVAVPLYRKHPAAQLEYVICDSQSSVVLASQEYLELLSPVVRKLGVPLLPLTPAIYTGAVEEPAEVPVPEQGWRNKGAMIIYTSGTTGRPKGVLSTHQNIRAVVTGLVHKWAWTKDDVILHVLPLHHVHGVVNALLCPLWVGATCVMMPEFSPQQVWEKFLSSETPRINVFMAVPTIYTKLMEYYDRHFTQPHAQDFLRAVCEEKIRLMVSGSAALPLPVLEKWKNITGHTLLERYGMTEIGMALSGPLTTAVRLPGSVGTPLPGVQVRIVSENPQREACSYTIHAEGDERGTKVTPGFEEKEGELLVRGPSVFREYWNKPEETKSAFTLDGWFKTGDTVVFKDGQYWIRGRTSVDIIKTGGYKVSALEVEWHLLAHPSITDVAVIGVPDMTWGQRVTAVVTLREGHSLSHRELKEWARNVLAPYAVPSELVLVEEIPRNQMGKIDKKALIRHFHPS
UniProt Q9P1F3: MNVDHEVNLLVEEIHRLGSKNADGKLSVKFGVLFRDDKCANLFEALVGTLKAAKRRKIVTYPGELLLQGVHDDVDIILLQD
UniProt P53367: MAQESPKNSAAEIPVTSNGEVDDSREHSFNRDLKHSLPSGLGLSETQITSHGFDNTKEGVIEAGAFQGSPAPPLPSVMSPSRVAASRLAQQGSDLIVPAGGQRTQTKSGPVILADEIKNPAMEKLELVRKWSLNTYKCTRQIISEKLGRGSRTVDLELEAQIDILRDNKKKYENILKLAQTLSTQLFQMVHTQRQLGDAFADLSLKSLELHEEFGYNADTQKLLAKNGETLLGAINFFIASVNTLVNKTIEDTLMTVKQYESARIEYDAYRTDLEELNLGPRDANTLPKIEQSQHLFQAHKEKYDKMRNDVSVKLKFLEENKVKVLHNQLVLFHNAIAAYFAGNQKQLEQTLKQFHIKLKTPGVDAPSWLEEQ
UniProt P09110: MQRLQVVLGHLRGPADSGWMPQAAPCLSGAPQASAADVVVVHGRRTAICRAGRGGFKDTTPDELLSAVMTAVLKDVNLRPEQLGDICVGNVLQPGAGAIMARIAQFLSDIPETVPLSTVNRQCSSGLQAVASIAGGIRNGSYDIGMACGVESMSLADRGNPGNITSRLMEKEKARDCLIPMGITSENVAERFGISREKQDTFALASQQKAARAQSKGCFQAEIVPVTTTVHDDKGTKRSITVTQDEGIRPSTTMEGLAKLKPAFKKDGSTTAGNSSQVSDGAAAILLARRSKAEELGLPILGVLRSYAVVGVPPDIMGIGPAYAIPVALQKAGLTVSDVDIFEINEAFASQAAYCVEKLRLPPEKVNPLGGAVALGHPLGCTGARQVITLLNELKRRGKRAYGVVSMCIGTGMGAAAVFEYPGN
UniProt Q9UKV8, whole entry: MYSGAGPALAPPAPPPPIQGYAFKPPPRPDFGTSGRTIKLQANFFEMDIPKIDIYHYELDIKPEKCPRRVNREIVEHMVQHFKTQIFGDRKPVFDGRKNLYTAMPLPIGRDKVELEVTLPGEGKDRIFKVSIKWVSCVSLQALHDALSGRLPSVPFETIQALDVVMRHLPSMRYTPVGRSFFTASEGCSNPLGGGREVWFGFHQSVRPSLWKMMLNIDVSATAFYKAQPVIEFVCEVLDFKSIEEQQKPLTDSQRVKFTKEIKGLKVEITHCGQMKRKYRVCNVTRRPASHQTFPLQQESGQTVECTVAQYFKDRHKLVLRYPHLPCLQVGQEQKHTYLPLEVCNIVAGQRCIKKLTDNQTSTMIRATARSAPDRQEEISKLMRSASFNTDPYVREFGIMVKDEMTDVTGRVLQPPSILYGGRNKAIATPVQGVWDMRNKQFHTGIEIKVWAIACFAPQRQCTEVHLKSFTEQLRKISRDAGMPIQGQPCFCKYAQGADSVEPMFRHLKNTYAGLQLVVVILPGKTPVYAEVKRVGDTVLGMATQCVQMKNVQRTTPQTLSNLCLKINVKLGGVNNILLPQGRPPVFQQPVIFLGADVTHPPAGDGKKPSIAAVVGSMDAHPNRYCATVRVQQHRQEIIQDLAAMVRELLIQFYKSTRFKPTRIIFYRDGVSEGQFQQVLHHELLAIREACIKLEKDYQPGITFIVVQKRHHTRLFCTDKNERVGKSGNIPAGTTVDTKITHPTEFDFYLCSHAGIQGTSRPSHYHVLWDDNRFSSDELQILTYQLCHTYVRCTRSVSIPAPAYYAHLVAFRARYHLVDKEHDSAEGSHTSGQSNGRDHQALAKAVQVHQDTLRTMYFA
UniProt P31749: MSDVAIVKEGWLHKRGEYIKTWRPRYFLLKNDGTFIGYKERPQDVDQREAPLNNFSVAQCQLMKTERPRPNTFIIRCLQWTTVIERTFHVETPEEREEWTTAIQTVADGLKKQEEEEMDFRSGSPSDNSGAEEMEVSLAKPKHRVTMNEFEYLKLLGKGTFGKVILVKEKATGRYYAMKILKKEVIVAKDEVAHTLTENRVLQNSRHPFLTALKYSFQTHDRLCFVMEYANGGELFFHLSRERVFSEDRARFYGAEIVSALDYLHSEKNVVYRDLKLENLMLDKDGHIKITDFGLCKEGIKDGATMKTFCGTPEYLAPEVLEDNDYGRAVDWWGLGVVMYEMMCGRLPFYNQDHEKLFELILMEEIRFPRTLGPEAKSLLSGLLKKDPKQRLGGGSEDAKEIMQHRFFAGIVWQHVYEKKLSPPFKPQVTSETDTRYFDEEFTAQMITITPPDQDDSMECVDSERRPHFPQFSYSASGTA
UniProt P61163, whole entry: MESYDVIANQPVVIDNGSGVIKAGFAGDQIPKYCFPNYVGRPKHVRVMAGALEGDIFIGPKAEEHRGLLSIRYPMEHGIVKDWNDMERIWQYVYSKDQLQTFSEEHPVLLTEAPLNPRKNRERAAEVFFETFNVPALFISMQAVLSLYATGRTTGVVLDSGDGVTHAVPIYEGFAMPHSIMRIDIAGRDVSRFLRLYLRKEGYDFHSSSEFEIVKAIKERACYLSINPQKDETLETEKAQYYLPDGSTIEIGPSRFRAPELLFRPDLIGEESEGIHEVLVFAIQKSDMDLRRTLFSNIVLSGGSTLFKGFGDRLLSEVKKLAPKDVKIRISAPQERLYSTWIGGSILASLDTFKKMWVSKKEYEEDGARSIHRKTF
UniProt Q9NZK5: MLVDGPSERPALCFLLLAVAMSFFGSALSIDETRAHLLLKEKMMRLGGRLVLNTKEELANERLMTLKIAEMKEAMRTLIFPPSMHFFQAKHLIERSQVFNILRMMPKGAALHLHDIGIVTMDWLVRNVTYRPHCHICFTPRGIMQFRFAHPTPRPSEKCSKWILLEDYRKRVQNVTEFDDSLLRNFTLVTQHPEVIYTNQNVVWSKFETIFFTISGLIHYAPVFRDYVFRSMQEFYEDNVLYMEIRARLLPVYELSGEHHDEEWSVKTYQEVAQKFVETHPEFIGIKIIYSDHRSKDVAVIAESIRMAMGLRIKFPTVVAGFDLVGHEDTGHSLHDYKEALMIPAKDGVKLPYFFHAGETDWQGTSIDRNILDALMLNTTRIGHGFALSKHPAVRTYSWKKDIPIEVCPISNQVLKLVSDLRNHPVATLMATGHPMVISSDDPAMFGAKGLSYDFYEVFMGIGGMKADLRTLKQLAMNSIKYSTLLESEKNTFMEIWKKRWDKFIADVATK
UniProt P49189: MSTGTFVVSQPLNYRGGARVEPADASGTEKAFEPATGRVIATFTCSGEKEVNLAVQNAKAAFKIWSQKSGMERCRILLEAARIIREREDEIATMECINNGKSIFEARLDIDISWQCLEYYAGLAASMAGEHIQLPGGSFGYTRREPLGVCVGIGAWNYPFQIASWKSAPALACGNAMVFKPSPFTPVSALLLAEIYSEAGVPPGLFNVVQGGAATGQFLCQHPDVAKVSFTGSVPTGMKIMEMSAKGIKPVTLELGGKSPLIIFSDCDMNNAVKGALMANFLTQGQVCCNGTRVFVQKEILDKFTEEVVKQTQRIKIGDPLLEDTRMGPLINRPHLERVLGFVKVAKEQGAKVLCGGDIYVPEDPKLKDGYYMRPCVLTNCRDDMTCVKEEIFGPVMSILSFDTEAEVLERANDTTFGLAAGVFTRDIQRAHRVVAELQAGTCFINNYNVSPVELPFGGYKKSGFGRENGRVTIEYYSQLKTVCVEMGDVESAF
UniProt P42330: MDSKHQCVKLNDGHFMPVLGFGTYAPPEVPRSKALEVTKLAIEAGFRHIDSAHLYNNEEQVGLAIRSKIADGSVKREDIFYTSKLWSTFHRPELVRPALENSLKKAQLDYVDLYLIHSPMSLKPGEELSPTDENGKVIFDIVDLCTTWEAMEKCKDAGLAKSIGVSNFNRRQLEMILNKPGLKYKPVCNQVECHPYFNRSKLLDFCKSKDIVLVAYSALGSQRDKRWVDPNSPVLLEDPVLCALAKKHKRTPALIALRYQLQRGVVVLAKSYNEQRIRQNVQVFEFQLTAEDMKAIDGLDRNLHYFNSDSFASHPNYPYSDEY

Compound: Nc1nc2c(ncn2[C@@H]2O[C@H](COP(=O)(O)OP(=O)(O)OP(=O)(O)O)[C@@H](O)[C@H]2O)c(=O)[nH]1
Experiment: dose-dependent thermal stabilisation call (2D-TPP, DLPTP, 10% FDR) (binary (1 = stabilised)); higher = stabilised by the compound
Settings: system: Jurkat gel-filtered lysate; concentration range 1-500 µM
Experimental: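 2D thermal proteome profiling in gel-filtered Jurkat E6.1 lysate (2 mg/ml) treated with NaGTP (0, 1, 10, 100, 500 uM) for 10 min at room temperature, then heated 3 min at one of 12 temperatures (42-63.9 C). Soluble protein was quantified by TMT10 MS. The value is the DLPTP call of the paper: dose-dependent thermal stabilisation over all temperatures at 10% FDR (F-test of a dose-response against a flat model); one experiment, one call per tested protein.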

Row | Target | dose-dependent thermal stabilisation call
1 | AHCYL1 (UniProt O43865) | inactive: 0
2 | ARHGAP15 (UniProt Q53QZ3) | active: 1
3 | AK6 (UniProt Q9Y3D8) | inactive: 0
4 | AKAP5 (UniProt P24588) | inactive: 0
5 | AQR (UniProt O60306) | inactive: 0
6 | AMD1 (UniProt P17707) | inactive: 0
7 | ANKZF1 (UniProt Q9H8Y5) | inactive: 0
8 | ALKBH3 (UniProt Q96Q83) | inactive: 0
9 | APOL3 (UniProt O95236) | inactive: 0
10 | ALG13 (UniProt Q9NP73) | inactive: 0
11 | ACSS1 (UniProt Q9NUB1) | active: 1
12 | ANXA7 (UniProt P20073) | inactive: 0
13 | ANKRD44 (UniProt Q8N8A2) | inactive: 0
14 | ARGLU1 (UniProt Q9NWB6) | active: 1
15 | ACTR1B (UniProt P42025) | inactive: 0
16 | ARHGAP27 (UniProt Q6ZUM4) | active: 1
17 | ANGEL2 (UniProt Q5VTE6) | inactive: 0
18 | ANXA3 (UniProt P12429) | active: 1
19 | ACSF3 (UniProt Q4G176) | active: 1
20 | ABRACL (UniProt Q9P1F3) | inactive: 0

Row | Target | dose-dependent thermal stabilisation call
21 | APRT (UniProt P07741) | inactive: 0
22 | ARFIP1 (UniProt P53367) | inactive: 0
23 | ACAA1 (UniProt P09110) | inactive: 0
24 | AKAP1 (UniProt Q92667) | inactive: 0
25 | ANKRD11 (UniProt Q6UB99) | inactive: 0
26 | AGO2 (UniProt Q9UKV8) | inactive: 0
27 | ADAT2 (UniProt Q7Z6V5) | inactive: 0
28 | ANKRD40 (UniProt Q6AI12) | inactive: 0
29 | ACAD8 (UniProt Q9UKU7) | inactive: 0
30 | AKT1 (UniProt P31749) | active: 1
31 | ACTR1A (UniProt P61163) | active: 1
32 | ADA2 (UniProt Q9NZK5) | inactive: 0
33 | ADAT3 (UniProt Q96EY9) | inactive: 0
34 | AP5S1 (UniProt Q9NUS5) | inactive: 0
35 | ALDH9A1 (UniProt P49189) | active: 1
36 | AKAP9 (UniProt Q99996) | inactive: 0
37 | AIFM1 (UniProt O95831) | inactive: 0
38 | ADAM10 (UniProt O14672) | inactive: 0
39 | AKR1C3 (UniProt P42330) | inactive: 0
40 | ALS2 (UniProt Q96Q42) | inactive: 0

Exported as tab-separated lines: part of the list above.
Row	Target	dose-dependent thermal stabilisation call
24	AKAP1 (UniProt Q92667)	inactive: 0
25	ANKRD11 (UniProt Q6UB99)	inactive: 0
